From US12144864B2 (Regeneron Pharmaceuticals, Inc., priority 2018, dated 2024)

Assay: peptide synthesis
[1] = whole synthesis, HPLC-MS, Agilent 1200 HPLC/6100 SQ, C18 columns, DAD (214 nm and 254 nm), ELSD
[2] = conjugation step, HPLC-MS, Agilent 1200 HPLC/6100 SQ, C18 columns, DAD (214 nm and 254 nm), ELSD

Row | Substance | step yield (coupling step) | final HPLC purity [1] [%] | also measured
1 | 2-4-(2-((1R,3R)-1-acetoxy-3-((2S,3S)—N-(hex-5-ynyl)-3-methyl-2-((R)-1-methylpiperidine-2-carboxamido)pentanamido)-4-methylpentyl)thiazole-4-carboxamido)-5-(3-((benzyloxycarbonyl)(methyl)amino)-4-fluorophenyl)-2,2-dimethylpentanoic acid | 47% | – | –
2 | 4-(2-((1R,3R)-1-acetoxy-3-((2S,3S)—N-hexyl-3-methyl-2-((R)-1-methylpiperidine-2-carboxamido)pentanamido)-4-methylpentyl)thiazole-4-carboxamido)-5-(4-fluoro-3-(methylamino)phenyl)-2,2-dimethylpentanoic acid | – | 100 | step yield (late stage modification step): 38%
3 | 4-((S)-2-((S)-2-(6-(2,5-dioxo-2,5-dihydro-1H-pyrrol-1-yl)hexanamido)-3-methylbutanamido)-5-ureidopentanamido)benzyl-((2S,4R)-4-(2-((1R,3R)-1-acetoxy-3-((2S,3R)—N-hexyl-3-methyl-2-((R)-1-methylpiperidine-2-carboxamido)pentanamido)-4-methylpentyl)thiazole-4-carboxamido)-5-(4-fluorophenyl)-2-methylpentanoyl)hydrazinecarboxylate | – | – | conjugation yield (conjugation step): 66%; final HPLC purity [2]: 85%
4 | 4-({2-[(1R,3R)-1-(Acetyloxy)-3-[(2S,3S)—N-(hex-5-yn-1-yl)-3-methyl-2-{[(2R)-1-methylpiperidin-2-yl]formamido}pentanamido]-4-methylpentyl]-1,3-thiazol-4-yl}formamido)-5-[3-(dibenzylamino)-4-fluorophenyl]-2,2-dimethylpentanoic acid | 40% | – | –
5 | 4-({2-[(1R,3R)-1-(Acetyloxy)-3-[(2S,3S)—N-hexyl-3-methyl-2-{[(2R)-1-methylpiperidin-2-yl]formamido}pentanamido]-4-methylpentyl]-1,3-thiazol-4-yl}formamido)-5-(3-amino-4-fluorophenyl)-2,2-dimethylpentanoic acid | – | 100 | step yield (late stage modification step): 23%
6 | 4-({2-[(1R,3R)-1-(Acetyloxy)-3-[(2S,3S)—N-hexyl-3-methyl-2-{[(2R)-1-methylpiperidin-2-yl]formamido}pentanamido]-4-methylpentyl]-1,3-thiazol-4-yl}formamido)-5-(4-amino-3-fluorophenyl)-2,2-dimethylpentanoic acid | – | – | final HPLC purity (whole synthesis, HPLC-MS, Agilent 1200 HPLC/6100 SQ, C18 columns, DAD (214 nm and 254 nm), ELSD, run 1): 95%; final HPLC purity (whole synthesis, HPLC-MS, Agilent 1200 HPLC/6100 SQ, C18 columns, DAD (214 nm and 254 nm), ELSD, run 2): >99%
7 | (1R,3R)-1-(4-((S)-1-(4-Aminophenyl)-5-hydrazinyl-4,4-dimethyl-5-oxopentan-2-ylcarbamoyl)thiazol-2-yl)-3-((2S,3S)—N-hexyl-3-methyl-2-((R)-1-methylpiperidine-2-carboxamido)pentanamido)-4-methylpentyl acetate | – | 95 | step yield (late stage modification step, from Fmoc-IVq): 11%
8 | (1R,3R)-1-(4-{[(2R,4S)-4-{N′-[({4-[(2S)-2-[(2S)-2-[1-(4-{2-azatricyclo[10.4.0.0^{4,9}]hexadeca-1(12),4(9),5,7,13,15-hexaen-10-yn-2-yl}-4-oxobutanamido)-3,6,9,12-tetraoxapentadecan-15-amido]-3-methylbutanamido]-5-(carbamoylamino)pentanamido]phenyl}methoxy)carbonyl] hydrazinecarbonyl}-1-(4-hydroxyphenyl)-4-methylbutan-2-yl]carbamoyl}-1,3-thiazol-2-yl)-3-[(2S,3S)—N-(hexyloxy)-3-methyl-2-{[(2R)-1-methylpiperidin-2-yl]formamido}pentanamido]-4-methylpentyl acetate | – | – | conjugation yield (conjugation step): 27%; final HPLC purity [2]: 95%
9 | (2S,3S,4S,5R,6S)-6-(4-{[({4-[(2S)-2-({2-[(1R,3R)-1-(Acetyloxy)-4-methyl-3-[(2S,3S)-3-methyl-2-{[(2R)-1-methylpiperidin-2-yl]formamido}-N-(pent-4-yn-1-yloxy)pentanamido]pentyl]-1,3-thiazol-4-yl}formamido)-4-carboxy-4,4-dimethylbutyl]phenyl}carbamoyl)oxy]methyl}-2-({2-[2-(cyclooct-2-yn-1-yloxy)acetamido]ethyl}carbamoyl)phenoxy)-3,4,5-trihydroxyoxane-2-carboxylic acid | 36% | – | final HPLC purity [2]: >95%
10 | (2S,4R)-4-(2-((1R,3R)-1-Acetoxy-3-((2S,3S)—N-(3-hydroxypropoxy)-3-methyl-2-((R)-1-methylpiperidine-2-carboxamido)pentanamido)-4-methylpentyl)thiazole-4-carboxamido)-5-(4-hydroxyphenyl)-2-methylpentanoic acid | – | – | step yield (late stage modification step): 41%
11 | (2S,4R)-4-(2-((8R,10R)-1-(4-Aminophenyl)-8-isopropyl-7-((2S,3S)-3-methyl-2-((R)-1-methylpiperidine-2-carboxamido)pentanoyl)-12-oxo-2,6,11-trioxa-7-azatridecan-10-yl)thiazole-4-carboxamido)-5-(4-hydroxyphenyl)-2-methylpentanoic acid | – | – | step yield (late stage modification step): 53%
12 | (2S,4R)-4-({2-[(1R,3R)-1-(Acetyloxy)-3-[(2S,3S)—N-(hex-5-yn-1-yl)-3-methyl-2-{[(2R)-1-methylpiperidin-2-yl]formamido}pentanamido]-4-methylpentyl]-1,3-thiazol-4-yl}formamido)-5-(4-aminophenyl)-2-methylpentanoic acid | 30% yield | 100 | final HPLC purity (coupling step, Method B): >99%
13 | (2S,4R)-4-({2-[(1R,3R)-1-(Acetyloxy)-3-[(2S,3S)—N-(hex-5-yn-1-yl)-3-methyl-2-{[(2R)-1-methylpiperidin-2-yl]formamido}pentanamido]-4-methylpentyl]-1,3-thiazol-4-yl}formamido)-5-(4-fluorophenyl)-2-methylpentanoic acid | 45% yield | 100 | final HPLC purity (coupling step, Method A): >99%
14 | (2S,4R)-4-({2-[(1R,3R)-1-(Acetyloxy)-3-[(2S,3S)—N-(hex-5-yn-1-yl)-3-methyl-2-{[(2R)-1-methylpiperidin-2-yl]formamido}pentanamido]-4-methylpentyl]-1,3-thiazol-4-yl}formamido)-5-(4-hydroxyphenyl)-2-methylpentanoic acid | 43% yield | 100 | final HPLC purity (coupling step, Method B): >99%
15 | (2S,4R)-4-({2-[(1R,3R)-1-(Acetyloxy)-4-methyl-3-[(2S,3S)-3-methyl-2-{[(2R)-1-methylpiperidin-2-yl]formamido}-N-(pent-4-yn-1-yloxy)pentanamido]pentyl]-1,3-thiazol-4-yl}formamido)-5-(4-aminophenyl)-2-methylpentanoic acid | 60% | – | final HPLC purity (coupling step, Method A): >99%
16 | (2S,4R)-4-({2-[(1R,3R)-1-(Acetyloxy)-4-methyl-3-[(2S,3S)-3-methyl-2-{[(2R)-1-methylpiperidin-2-yl]formamido}-N-(pent-4-yn-1-yloxy)pentanamido]pentyl]-1,3-thiazol-4-yl}formamido)-5-(4-fluorophenyl)-2-methylpentanoic acid | 20% | – | final HPLC purity (coupling step, Method B): 98%
17 | (2S,4R)-4-({2-[(1R,3R)-1-(Acetyloxy)-4-methyl-3-[(2S,3S)-3-methyl-2-{[(2R)-1-methylpiperidin-2-yl]formamido}-N-(pent-4-yn-1-yloxy)pentanamido]pentyl]-1,3-thiazol-4-yl}formamido)-5-(4-hydroxyphenyl)-2-methylpentanoic acid | 39% | – | final HPLC purity (coupling step, Method A): >99%
18 | (2S,4R)-5-(4-Hydroxyphenyl)-4-(2-((5R,7R)-7-isopropyl-8-((2S,3S)-3-methyl-2-((R)-1-methylpiperidine-2-carboxamido)pentanoyl)-3-oxo-4,9-dioxa-2,8-diazapentadecan-5-yl)thiazole-4-carboxamido)-2-methylpentanoic acid | 36% | – | –
19 | (2S,4R)-5-(4-Hydroxyphenyl)-4-(2-((7R,9R)-9-isopropyl-10-((2S,3S)-3-methyl-2-((R)-1-methylpiperidine-2-carboxamido)pentanoyl)-5-oxo-6,11-dioxa-4,10-diazaheptadecan-7-yl)thiazole-4-carboxamido)-2-methylpentanoic acid | 40% | – | –
20 | (2S,4R)-5-(4-Hydroxyphenyl)-4-(2-((8R,10R)-10-isopropyl-11-((2S,3S)-3-methyl-2-((R)-1-methylpiperidine-2-carboxamido)pentanoyl)-6-oxo-7,12-dioxa-5,11-diazaoctadecan-8-yl)thiazole-4-carboxamido)-2-methylpentanoic acid | 50% | – | –
21 | (2S,4R)-5-(4-Hydroxyphenyl)-4-(2-((9R,11R)-9-isopropyl-8-((2S,3S)-3-methyl-2-((R)-1-methylpiperidine-2-carboxamido)pentanoyl)-13-oxo-7,12-dioxa-8,14-diazaicosan-11-yl)thiazole-4-carboxamido)-2-methylpentanoic acid | 40% | – | –
22 | (2S,4R)-5-(4-hydroxyphenyl)-4-(2-((6R,8R)-8-isopropyl-9-((2S,3S)-3-methyl-2-((R)-1-methylpiperidine-2-carboxamido)pentanoyl)-4-oxo-5,10-dioxa-3,9-diazahexadecan-6-yl)thiazole-4-carboxamido)-2-methylpentanoic acid | 15% | – | –
23 | (4S)-4-({2-[(1R,3R)-1-(Acetyloxy)-3-[(2S,3S)—N-(hex-5-yn-1-yl)-3-methyl-2-{[(2R)-1-methylpiperidin-2-yl]formamido}pentanamido]-4-methylpentyl]-1,3-thiazol-4-yl}formamido)-2,2-dimethyl-5-phenylpentanoic acid | 10% yield | 100 | final HPLC purity (coupling step, Method A): >99%
